The nature of this assay: qHTS Assay for Modulators of Lamin A Splicing. As to conditions: HeLa LMNA splicing GFP/RFP minigene ratio, 48 h. The gist of the method:
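S3 HeLa stable clones carrying a lamin A-EGFP splicing minigene plus DsRed2 were seeded at 600 cells/well in Opti-MEM with 2% FBS, pin-dosed and incubated 48 h at 37°C. Acumen cytometry (488 nm) gave the GFP/RFP total-intensity ratio.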

[1] abbreviates: measured here: GFP splicing reporter channel.
[2] abbreviates: measured here: RFP viability control channel.

This is one part of the list. The main result of the screen is listed elsewhere. These columns were measured beside it and carry no call. Compounds called inactive in the main read-out are mostly missing here. Potencies come from curve fits of mixed quality, noted in brackets.

What is called AC50 is the concentration at which the activity in the assay is half-maximal.

For the molecule `C=CCN(C(=O)Nc1ccc2oc(C)nc2c1)c1ccccc1`, the AC50 runs as follows: under setting [1], 35.5 µM [rising, single point]; under setting [2], 14.1 µM [rising, partial curve, poor fit].

In the case of `Cc1ccc(/C=C2\C(=O)ON=C2c2ccccc2)o1`, under setting [2], the AC50 was 0.0891 µM [falling, full curve, poor fit].

Take `Cc1ccc(C(=O)c2ccccc2C(=O)OCC(=O)Nc2ccc(SC(F)F)cc2)cc1`: the AC50 under setting [2] was 5.62 µM [rising, partial curve].

Take `COc1ccc(NC(=O)C2CC(=O)N=C(N)S2)cc1` (stereo unspecified): the AC50 under setting [1] is 5.62 µM [rising, single point].

Consider `Cc1ccccc1C=Nc1ccccc1C(N)=O`, for which the AC50 under setting [2] is 7.08 µM [rising, partial curve].

For the molecule `CCOC(=O)c1c(NC(=O)c2ccco2)n(C2CCCCC2)c2nc3ccccc3nc12`, the AC50 under setting [1] is 12.6 µM [rising, partial curve] and the AC50 under setting [2] is 11.2 µM [rising, partial curve].

On to `COc1ccc(/C=N/NS(=O)(=O)c2ccccc2)cc1OS(=O)(=O)c1ccc(C)cc1`, for which the AC50 under setting [2] was 35.5 µM [rising, single point].

Regarding `O=C(Nc1cccnc1)c1sc2cccc(F)c2c1Cl`, the AC50 under setting [1] is 7.08 µM [rising, full curve, poor fit].

For `CCCc1nn(C)c(C(=O)Nc2ccc(CC)cc2)c1Cl`, under setting [2], the AC50 is 1 µM [rising, full curve, poor fit].

With `N=c1c2c(-c3ccccc3)c(-c3ccccc3)oc2ncn1CCN1CCOCC1`, the AC50 runs as follows: under setting [1], 11.2 µM [rising, partial curve]; under setting [2], 17.8 µM [rising, single point].

Turning to `Cc1cccc(C)c1NC(=S)Nc1ccc(F)cc1`, the AC50 is 1.78 µM [falling, partial curve] under setting [1] and 2 µM [falling, full curve, poor fit] under setting [2].

As to `CC1CCC2(CC1)NC(=S)N(c1ccccc1)N2` (stereo unspecified), the AC50 under setting [2] is 25.1 µM [falling, single point].

Take `Clc1cccc(Nc2ncnc3c2cnn3-c2ccccc2)c1`: the AC50 was 22.4 µM [rising, single point] under setting [1] and 22.4 µM [rising, partial curve, poor fit] under setting [2].

Turning to `CC(Oc1ccc(Cl)cc1Cl)c1nc(-c2ccc(NC(=O)c3ccco3)cc2)no1` (stereo unspecified), the concentration at half-maximal activity (AC50) under setting [2] is 11.2 µM [rising, single point].

As for `Cc1ccc(-n2ncc3c(N4CCCCCC4)ncnc32)cc1C`, the AC50 under setting [1] is 7.08 µM [falling, full curve].

Take `O=C(COc1ccccc1)N1CCN(c2ncnc3c2cnn3-c2ccccc2)CC1`: the AC50 under setting [2] is 31.6 µM [rising, single point].

On to `Cc1cc(NC(=O)c2sccc2C)n(-c2nc3ccccc3[nH]2)n1`, for which the AC50 is 2.82 µM [falling, single point] under setting [1] and 35.5 µM [falling, single point] under setting [2].

On to `CCc1ccc(-c2cn3c(n2)sc2cc(C(=O)NC4CCCCC4)ccc23)cc1`, for which the AC50 by setting is: under setting [1], 17.8 µM [rising, partial curve]; under setting [2], 12.6 µM [rising, single point].

Turning to `CC1CCN(C(=O)CN(c2ccc(Oc3ccccc3)cc2)S(C)(=O)=O)CC1`, the AC50 is 15.8 µM [rising, partial curve, poor fit] under setting [1] and 11.2 µM [rising, partial curve] under setting [2].

Take `NCCO/C=C/[C@H](N)C(=O)O`: the AC50 was 0.00282 µM [falling, full curve, poor fit] under setting [1] and 0.00398 µM [falling, full curve, poor fit] under setting [2].

For the molecule `COCCNc1oc(-c2ccccc2)nc1S(=O)(=O)c1ccc(Br)cc1`, the AC50 reads like this: under setting [1], 0.708 µM [falling, full curve, poor fit]; under setting [2], 0.158 µM [falling, full curve, poor fit].

For `Cc1cccc(-n2cc(-c3ccccc3)c3c(N4CCOCC4)ncnc32)c1`, the AC50 is 2.82 µM [falling, partial curve] under setting [1] and 20 µM [falling, single point] under setting [2].

Take `c1ccc2sc(C3CCN(Cc4nnnn4Cc4ccc5c(c4)OCO5)CC3)nc2c1`: the AC50 under setting [1] was 0.0501 µM [rising, full curve, poor fit] and the AC50 under setting [2] is 14.1 µM [rising, partial curve, poor fit].

As to `COc1ccc(S(=O)(=O)Nc2ccccc2OC)cc1NC(=O)Cc1cccs1`, the AC50 under setting [2] is 14.1 µM [rising, single point].

As to `COc1ccc2sc(N(Cc3cccnc3)C(=O)c3ccc4c(c3)OCCO4)nc2c1`, the AC50 under setting [1] is 25.1 µM [rising, single point] and the AC50 under setting [2] was 31.6 µM [rising, single point].

Regarding `O=C(CSc1ncn[nH]1)Nc1cccc(S(=O)(=O)N2CCCCCC2)c1`, the AC50 under setting [2] was 11.2 µM [rising, partial curve].

In the case of `COC(=O)c1c(N)sc2c1CCN(c1ncc(C(F)(F)F)cc1Cl)C2`, the AC50 under setting [2] is 12.6 µM [rising, single point].

Regarding `COc1ccc(CC(=O)N2CCc3cc(OC)c(OC)cc3C2COc2cc(C)cc(C)c2)cc1OC` (stereo unspecified), the AC50 under setting [2] is 0.0282 µM [rising, full curve, poor fit].

Consider `Oc1ccccc1-c1nc(NCCN2CCOCC2)c2ccccc2n1`, for which the AC50 under setting [2] is 10 µM [rising, partial curve, poor fit].

Consider `O=C(CCNC(=O)c1ccc([N+](=O)[O-])cc1)N/N=C/c1ccc(F)cc1`, for which, under setting [2], the AC50 is 0.00316 µM [falling, full curve].

With `COC(=O)c1[nH]c2ccc(F)cc2c1NS(=O)(=O)c1ccc(F)c(C)c1`, the half-maximal activity concentration (AC50) is, setting by setting: under setting [1], 1.58 µM [falling, partial curve, poor fit]; under setting [2], 2 µM [falling, partial curve, poor fit].

Turning to `CCN1CCN(C(=O)CCN2C(=O)c3ccccc3C2=O)CC1`, the concentration at half-maximal activity (AC50) under setting [1] is 0.501 µM [falling, single point].

For `CSc1scc2c1-c1nc(SCC(=O)C(C)(C)C)ncc1CC2`, the AC50 reads like this: under setting [1], 2.24 µM [falling, single point]; under setting [2], 3.98 µM [falling, full curve].

Take `Brc1ccc2c(c1)OCCOCCOc1cc(Br)ccc1OCCOCCOCCO2`: the AC50 under setting [2] is 12.6 µM [rising, partial curve].

Regarding `CCOc1cc(N2CCOCC2)c(OCC)cc1NC(=O)CN1C(=O)C2CC=CCC2C1=O` (stereo unspecified), the AC50 under setting [2] was 0.0794 µM [falling, full curve].

`Cc1nn(C)c(C(=O)N/N=C/c2ccc(Br)cc2)c1Cl`: the AC50 under setting [1] was 0.178 µM [rising, full curve, poor fit].

For `Cc1ccc2nc(/C(C#N)=C/c3ccc(-c4cccc([N+](=O)[O-])c4)o3)[nH]c2c1`, under setting [2], the AC50 is 0.0631 µM [rising, full curve, poor fit].

With `O=C1c2cccc3cccc(c23)C(=O)N1CC1CCN(S(=O)(=O)c2ccc(F)cc2)CC1`, the AC50 under setting [2] is 35.5 µM [rising, single point].

Regarding `Cc1cccc(CCNS(=O)(=O)c2ccc(S(=O)(=O)NC3CCCC3)cc2)c1`, the AC50 under setting [2] is 25.1 µM [rising, single point].

For the molecule `CCC1CN(C(=O)N2CCC(C(=O)Nc3ccccc3F)CC2)c2ccccc2O1` (stereo unspecified), the AC50 under setting [1] was 11.2 µM [falling, partial curve] and the AC50 under setting [2] is 10 µM [falling, partial curve].

As for `COc1ccc(NC(=O)CN2C(=O)COc3ccc(S(=O)(=O)N4CCCCCC4)cc32)cc1`, the AC50 under setting [1] was 0.02 µM [rising, full curve, poor fit].

On to `Cc1cc(C2=NNC(=NC3CC3)SC2)c(C)n1-c1ccccc1`, for which the AC50 under setting [2] was 35.5 µM [rising, single point].

For `N#Cc1ccc(/C=N/NC(=O)c2cc(-c3cccs3)nc3ccccc23)cc1`, the AC50 under setting [2] is 6.31 µM [rising, full curve, poor fit].

In the case of `Cc1ccc(S(=O)(=O)N(C)C)cc1NC(=S)NC(=O)C12CC3CC(CC(C3)C1)C2`, the AC50 by setting is: under setting [1], 7.08 µM [rising, partial curve]; under setting [2], 5.01 µM [rising, full curve].

Turning to `CCCCNC(=O)CN1C(=O)C(CC)Oc2ccc(Cl)cc21` (stereo unspecified), the AC50 by setting is: under setting [1], 0.794 µM [falling, single point]; under setting [2], 0.794 µM [falling, single point].

In the case of `CCOC(=O)c1ccc(NC(=O)CSc2nc3sc(C(=O)O)c(C)c3c(=O)[nH]2)cc1`, the AC50 under setting [1] was 0.0794 µM [falling, full curve, poor fit].

Consider `CCN(CC)S(=O)(=O)c1ccc(N2CCN(c3cccc(OC)c3)CC2)c([N+](=O)[O-])c1`, for which the AC50 reads like this: under setting [1], 10 µM [rising, partial curve]; under setting [2], 17.8 µM [rising, partial curve].

For `COC(=O)c1ccc(C(=O)OC)c(NC(=O)CN(C)Cc2ccc(Cl)c(Cl)c2)c1`, the AC50 under setting [2] is 0.0178 µM [rising, full curve, poor fit].

With `O=C(Nc1cccc(Cl)c1Cl)c1cc(S(=O)(=O)NCc2ccc3c(c2)OCO3)ccc1F`, the AC50 under setting [1] was 0.158 µM [rising, partial curve].

On to `Cc1cccc2cc(C#N)c(NCCNS(=O)(=O)c3ccc4c(c3)OCCO4)nc12`, for which the AC50 under setting [2] is 12.6 µM [rising, single point].

Regarding `O=C(Nc1cc(Cl)ccc1Oc1ccccc1)c1ccccc1F`, under setting [2], the AC50 is 14.1 µM [rising, single point].

As to `c1ccc(CC2CCN(c3nc4ccccc4n4cnnc34)CC2)cc1`, under setting [2], the AC50 is 35.5 µM [rising, single point].

With `CC(=O)O[C@@H](C)C[N+](C)(C)C`, the AC50 was 0.000891 µM [falling, full curve, poor fit] under setting [1] and 0.316 µM [rising, full curve, poor fit] under setting [2].

For `Cc1ccc(-c2csc3ncnc(-n4cnc5ccccc54)c23)cc1`, the AC50 under setting [2] is 20 µM [rising, single point].

`Cc1ccc(CNc2ccc3c(c2)OCO3)cc1`: the AC50 by setting is: under setting [1], 14.1 µM [rising, partial curve, poor fit]; under setting [2], 0.891 µM [rising, partial curve, poor fit].
